Data from patent US6737397B1, “Control of cancer growth through the interaction of [MET5]-enkephalin and the zeta receptor” (The Penn State Research Foundation, priority 1996, dated 2004).

Assay: Radioimmunoassay of [Met5]-enkephalin in tumors and plasma of HT-29 bearing nude mice given 0.1 mg/kg NTX
Format: in vivo

Q: With O=C1CC[C@@]2(O)[C@H]3Cc4ccc(O)c5c4[C@@]2(CCN3CC2CC2)[C@H]1O5 [naltrexone] as the compound, how does the “Plasma [Met^5]-enkephalin (pg/ml plasma)” value (0.1 mg/kg NTX) read?
A: 100.0 ± 20.0 pg/ml plasma

Q: What about the “plasma [Met5]-enkephalin levels elevated from control values” (0.1 mg/kg naltrexone) of the same compound?
A: 2.5 fold

Q: What about the “[Met5]-enkephalin levels in tumor tissue increased from controls” value (0.1 mg/kg naltrexone, no statistical difference) of the same compound?
A: 34%

Q: What about the “Tissue [Met^5]-enkephalin (pg/mg tissue)” value (tumor, 0.1 mg/kg NTX) of the same compound?
A: 79.2 ± 5.2 pg/mg tissue
